Data published in patent publication US20060270596A1.
These are yes or no findings as the source states them, for the method shown. In cells and extracts the contact can be indirect. Some entries that bind do so weakly or less than the wild type. For some assays here: Sequences can lack the tags named with a protein.

Amino acid sequences for entries named in this document (tags omitted). A change or cut given only in a name is not applied to a line headed by its entry. Residues count along the entry.
UniProt Q99616: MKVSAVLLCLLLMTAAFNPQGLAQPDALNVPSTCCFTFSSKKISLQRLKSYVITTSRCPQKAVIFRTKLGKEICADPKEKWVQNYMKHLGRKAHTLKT
UniProt O00585: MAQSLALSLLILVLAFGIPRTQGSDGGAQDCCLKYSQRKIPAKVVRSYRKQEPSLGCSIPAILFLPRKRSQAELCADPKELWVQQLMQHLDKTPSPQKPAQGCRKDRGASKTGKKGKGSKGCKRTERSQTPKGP
UniProt P13500: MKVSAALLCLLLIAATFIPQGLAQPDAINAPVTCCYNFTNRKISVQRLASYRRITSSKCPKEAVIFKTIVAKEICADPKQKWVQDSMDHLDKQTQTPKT
UniProt P48061, residues 1-89: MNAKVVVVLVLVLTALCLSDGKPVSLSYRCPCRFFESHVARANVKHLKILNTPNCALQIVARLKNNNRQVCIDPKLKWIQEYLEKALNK
UniProt Q9H0W7: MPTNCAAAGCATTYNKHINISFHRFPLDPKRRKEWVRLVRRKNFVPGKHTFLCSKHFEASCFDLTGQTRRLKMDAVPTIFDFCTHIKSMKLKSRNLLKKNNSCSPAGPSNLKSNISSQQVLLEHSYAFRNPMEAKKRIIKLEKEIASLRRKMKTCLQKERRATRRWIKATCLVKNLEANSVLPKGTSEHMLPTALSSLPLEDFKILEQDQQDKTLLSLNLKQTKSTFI

What was measured:
[1] = target: T1, THAP1-C3 deletion mutant (amino acids 143-213) (human) (UniProt Q9NVV9); test: GST pull-down, 35S-labelled in vitro translated molecule
T1 sequence: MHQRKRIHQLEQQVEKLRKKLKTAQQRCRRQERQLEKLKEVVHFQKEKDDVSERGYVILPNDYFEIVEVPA

[2] = target: chemokine CCL13 (UniProt Q99616); test: as above
[3] = target: T2, chemokine CXCL11 (UniProt O14625); test: as above
T2 sequence (looked up): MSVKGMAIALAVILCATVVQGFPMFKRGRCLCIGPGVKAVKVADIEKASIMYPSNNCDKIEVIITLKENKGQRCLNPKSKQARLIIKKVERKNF

[4] = target: human chemokine SLC/CCL21, mature form (amino acids 24-134) (human) (UniProt O00585); test: as above
[5] = target: chemokine CCL2 (UniProt P13500); test: GST pull-down, 35S-labelled in vitro translated chemokine
[6] = target: chemokine CXCL12 (UniProt P48061); test: as above
[7] = target: T3, human chemokine MIG/CXCL9, mature form (amino acids 23-125) (human) (UniProt Q07325); test: as above
T3 sequence: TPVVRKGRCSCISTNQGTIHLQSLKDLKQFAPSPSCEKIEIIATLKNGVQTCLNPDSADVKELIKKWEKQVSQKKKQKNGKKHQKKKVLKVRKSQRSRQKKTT

[8] = target: human chemokine SLC/CCL21, mature form (amino acids 24-134) (human) (UniProt O00585); test: as above
[9] = target: T1, THAP1-C3 deletion mutant (amino acids 143-213) (human); test: GST pull-down: in vitro translated 35S-labelled protein on the GST fusion immobilised on glutathione sepharose, SDS-PAGE, fluorography
[10] = target: chemokine CCL13 (UniProt Q99616); test: as above
[11] = target: T2, chemokine CXCL11; test: as above
[12] = target: human chemokine SLC/CCL21, mature form (amino acids 24-134) (human) (UniProt O00585); test: as above
[13] = target: chemokine CXCL12 (UniProt P48061); test: GST pull-down: in vitro translated 35S-labelled chemokine or cytokine on the GST fusion immobilised on glutathione sepharose, SDS-PAGE, fluorography
[14] = target: T3, human chemokine MIG/CXCL9, mature form (amino acids 23-125) (human); test: as above
[15] = target: human chemokine SLC/CCL21, mature form (amino acids 24-134) (human) (UniProt O00585); test: as above
[16] = target: T4, GST-Par4DD fusion protein (Par4 amino acids 250-342) (human) (UniProt Q96IZ0); test: GST pull-down, 35S-labelled in vitro translated THAP2 on GST-Par4DD (FIG. 10C)
T4 sequence: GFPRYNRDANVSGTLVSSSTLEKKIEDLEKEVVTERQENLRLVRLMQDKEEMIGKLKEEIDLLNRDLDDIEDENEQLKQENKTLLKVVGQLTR

[17] = target: T4, GST-Par4DD fusion protein (Par4 amino acids 250-342) (human); test: GST pull-down: in vitro translated 35S-labelled protein on GST-Par4DD immobilised on glutathione sepharose, SDS-PAGE, fluorography

Measured: binding

GST-THAP2 133-228 (chemokine-binding domain of THAP2) (from UniProt Q9H0W7 133-228)
not listed: [16] | [17]
binds: all other assays above

human THAP2, full length (from UniProt Q9H0W7 1-228)
binds: [16] | [17]
